# Reference: PubChem BioAssay AID540276 (National Center for Advancing Translational Sciences (NCATS), 2011)
# In all, about 300,000 compounds went through this assay and about 5,400 (1.8%) were called active. The shares of active, inactive and inconclusive entries below differ from those in the screen. The call rests on the fitted dose curve; tested in HEK293 cells. Where the call is inconclusive, the potency comes from a doubtful curve fit.
# Assay: qHTS for inhibitors of binding or entry into cells for Marburg Virus
# Details: Marburg virus pseudotyped entry inhibition, cell reporter; series mostly up to 37.8 µM
# Potency means the concentration at half of the fitted maximal effect.
row,SMILES,Potency
1,CN1CCN(c2nc3nonc3nc2N2CCN(C)CC2)CC1,"inconclusive: 6.31 µM [activator, single point]"
2,CC(=O)c1ccc2noc(-c3cccc(C)c3)c2c1,"inconclusive: 3.16 µM [activator, single point]"
3,CN1CCN(c2ccc(Cl)cc2NC(=O)/C=C/c2ccc(F)cc2)CC1,"inconclusive: 14.1 µM [inhibitor, partial curve, poor fit]"
4,C=CCNc1oc(-c2ccco2)nc1S(=O)(=O)c1ccccc1,"inconclusive: 1.12 µM [inhibitor, single point]"
5,COC(=O)C1C(=O)C2=C(CC1C)NC(C)=C(C(=O)OCCOc1ccccc1)C2c1ccc(C)o1 (centres undefined),"inconclusive: 25.1 µM [inhibitor, single point]"
6,CC(=O)c1cccc(NC(=O)Nc2sc3nc4n(c(=O)c3c2C)CCC(C)CC4)c1 (centres undefined),inactive
7,CN1CCC23CCCC[C@H]2C1Cc1ccc(O)cc13 (some centres undefined),"inconclusive: 7.94 µM [inhibitor, partial curve]"
8,CC(Cc1cccs1)NC(=S)Nc1ccc(F)cc1 (centres undefined),"inconclusive: 35.5 µM [inhibitor, single point]"
9,Cc1ccc(NC(=O)CSc2ncccn2)c([N+](=O)[O-])c1,"inconclusive: 6.31 µM [activator, single point]"
10,O=C(Nc1cc(C(F)(F)F)ccc1Cl)C(Sc1cccc[n+]1[O-])c1ccccc1 (centres undefined),"inconclusive: 14.1 µM [inhibitor, partial curve, poor fit]"
11,Fc1ccccc1NC(=S)N(CCN1CCCCCC1)Cc1cccs1,"inconclusive: 6.31 µM [activator, single point]"
12,CC(=O)c1cccc(NC(=O)CNC(=O)Cc2cccc3ccccc23)c1,"inconclusive: 7.08 µM [inhibitor, partial curve, poor fit]"
13,O=[N+]([O-])c1ccc(S(=O)(=O)NN=Cc2ccc(Cl)c(Cl)c2)cc1,"inconclusive: 11.2 µM [inhibitor, partial curve, poor fit]"
14,CCCc1ccc(S(=O)(=O)N/N=C\c2ccc3c(c2)OCO3)cc1,"inconclusive: 35.5 µM [inhibitor, single point]"
15,CCn1c(C)csc1=NC(=O)c1ccccc1O,"inconclusive: 5.17 µM [activator, single point]"
16,COc1nc(=O)n(C2OC(CO)C(O)C2O)cc1C (centres undefined),"inconclusive: 35.5 µM [activator, single point]"
17,COc1ccc(S(=O)(=O)N2CCCCC2)cc1NC(=O)CCc1nc2ccccc2c(=O)[nH]1,inactive
18,Fc1cccc(NC(=S)Nc2cccc3ccccc23)c1,inactive
19,COc1ccc(/C=C\c2nc(O)c([N+](=O)[O-])c(=O)[nH]2)cc1O,inactive
20,N#CCSc1ncnc2sc3c(c12)CCC3,"inconclusive: 6.51 µM [inhibitor, single point]"
21,CC1Cc2ccccc2N1C(=O)c1nn(C)cc1Br (centres undefined),"inconclusive: 5.62 µM [activator, single point]"
22,Cc1ccsc1CCN1C(=O)N(c2ccccc2)C(=O)C1CC(=O)Nc1ccc(Cl)cc1 (centres undefined),"inconclusive: 22.4 µM [inhibitor, partial curve, poor fit]"

# Exported with bars between the fields: part of the list above
row | SMILES | Potency
4 | C=CCNc1oc(-c2ccco2)nc1S(=O)(=O)c1ccccc1 | inconclusive: 1.12 µM [inhibitor, single point]
15 | CCn1c(C)csc1=NC(=O)c1ccccc1O | inconclusive: 5.17 µM [activator, single point]
19 | COc1ccc(/C=C\c2nc(O)c([N+](=O)[O-])c(=O)[nH]2)cc1O | inactive
20 | N#CCSc1ncnc2sc3c(c12)CCC3 | inconclusive: 6.51 µM [inhibitor, single point]

# (further entries)

row,SMILES,Potency
1,CC(C)COc1cccc(-c2cc(C(=O)N/N=C/c3ccncc3)c3ccccc3n2)c1,active: 2.82 µM
2,Cc1cccc(OCC(=O)Nc2ccc(N3CCN(C(=O)c4ccco4)CC3)cc2)c1,"inconclusive: 8.2 µM [inhibitor, partial curve, poor fit]"
3,O=C(NCCCN1CCCC1=O)c1cn(-c2ccccc2)nc1-c1ccccc1,inactive
4,COc1ccc2c(c1)OC1(C)CC2C(C(=O)c2ccccc2OC)C(=O)N1 (centres undefined),inactive
5,O=C(Cn1c2[n+](c3ccc(C(F)(F)F)cc31)CCCCC2)Nc1ccc(Br)cc1,inactive
6,CC(C)(C)NC(=O)Nc1cccc(Cl)c1Cl,"inconclusive: 23.1 µM [inhibitor, single point]"
7,O=C(CSc1ccc(-c2ccccc2)nn1)NCC1CCCO1 (centres undefined),"inconclusive: 31.6 µM [activator, single point]"
8,Brc1cccc(OCCCCN2CCCCC2)c1,"inconclusive: 20.6 µM [inhibitor, partial curve, poor fit]"
9,Oc1ccc(N=C/C=C/c2ccc(Br)cc2)cc1-c1nc2ccccc2s1,inactive
10,Cc1ccc(C(C)C)c(OCc2ccc(C(=O)N/N=C/c3cccc(O)c3O)cc2)c1,active: 7.31 µM
11,Oc1cccc(NC(=S)Nc2cccnc2)c1,inactive
12,CCn1ncc(/C=C/C(=O)Nc2c(C)nn(Cc3ccc(Cl)cc3Cl)c2C)c1C,"inconclusive: 20.6 µM [inhibitor, single point]"
13,COc1cc(OC)c(-c2nc3c[n+](CC(=O)c4ccccc4)ccc3n2C)cc1OC,inactive
14,COc1ccc(-c2ccc3c(n2)CCCN3C[C@H](O)CN2CCCc3nc(C)c(C)cc32)cc1,"inconclusive: 5.96 µM [activator, single point]"
15,Cc1ccc(CNC(=O)CCc2cn(C)c3ccccc23)cc1,"inconclusive: 12.6 µM [inhibitor, partial curve, poor fit]"
16,CCOc1cc(CNCc2ccncc2)cc(Cl)c1OC,"inconclusive: 35.5 µM [inhibitor, partial curve, poor fit]"
17,O=C(NC1CCCCC1)c1ccc2c(c1)OCCO2,"inconclusive: 10 µM [inhibitor, partial curve, poor fit]"
18,Cc1cccc(-c2cc(C(=O)Nc3sc(C)c(C)c3C(N)=O)c3ccccc3n2)c1,"inconclusive: 15.8 µM [inhibitor, partial curve, poor fit]"
19,CCOc1ccccc1/C=C(\NC(=O)c1ccccc1)C(=O)NCCC(=O)O,"inconclusive: 13 µM [activator, partial curve, poor fit]"
20,COc1ccccc1N1CCN(CCN(C(=O)c2ccc(I)cc2)c2ccccn2)CC1,"inconclusive: 8.2 µM [inhibitor, partial curve, poor fit]"
21,CCS(=O)(=O)c1ncc(Cl)c(C(=O)N2CCN(c3ccc(OC)cc3)CC2)n1,"inconclusive: 35.5 µM [inhibitor, single point]"
22,O=S(=O)(c1ccc(Cl)cc1)N1CCCC1c1nc(-c2cccc(Cl)c2)no1 (centres undefined),"inconclusive: 18.3 µM [inhibitor, partial curve, poor fit]"

row,SMILES,Potency
1,CC1CC(C)CN(CCCOc2ccccc2[N+](=O)[O-])C1 (centres undefined),"inconclusive: 3.66 µM [inhibitor, partial curve, poor fit]"
2,COc1ccc(Cn2cc(S(=O)(=O)c3ccc(C)cc3)c(=O)c3cc(F)ccc32)cc1,"inconclusive: 6.31 µM [activator, single point]"
3,Cc1ccc2cc(/C=N/NC(=O)c3ccccc3[N+](=O)[O-])c(Cl)nc2c1,"inconclusive: 10 µM [activator, single point]"
4,COc1ccc(-n2ncc3c2CC(C)(C)CC3NC(=O)c2oc(C)cc2C)cc1 (centres undefined),"inconclusive: 2.51 µM [inhibitor, full curve, poor fit]"
5,Cc1ccccc1N1CCN(C(=O)c2ccccc2NC(=O)C2CC=CCC2C(=O)O)CC1 (centres undefined),"inconclusive: 1 µM [activator, full curve, poor fit]"
6,O=C(c1ccc(-n2cncn2)c([N+](=O)[O-])c1)N1CCN(S(=O)(=O)c2ccccc2F)CC1,"inconclusive: 0.316 µM [inhibitor, partial curve, poor fit]"
7,COc1ccc2oc3cc(C)[n+]([O-])c(-c4ccc(C)cc4)c3c2c1,"inconclusive: 10 µM [inhibitor, partial curve, poor fit]"
8,CN(C)c1cc[n+](CC(=O)c2ccc(OC(F)F)cc2)cc1,"inconclusive: 35.5 µM [inhibitor, single point]"
9,CSc1ncccc1C(=O)NC1CCCc2c1cnn2-c1ccc(C)c(C)c1 (centres undefined),"inconclusive: 5.62 µM [inhibitor, full curve, poor fit]"
10,COc1ccc(CCc2ccc3ccccc3n2)cc1,"inconclusive: 1 µM [activator, full curve, poor fit]"
11,CCn1c(NC(=O)c2cccs2)nc2ccccc21,inactive
12,CCOc1ccc(NS(=O)(=O)CC23CCC(CC2=O)C3(C)C)cc1 (centres undefined),"inconclusive: 29.1 µM [inhibitor, single point]"
13,O=c1cc(-c2ccc(O)cc2)oc2c([C@@H]3O[C@H](CO)[C@@H](O)[C@H](O)[C@H]3O)c(O)c([C@@H]3O[C@H](CO)[C@@H](O)[C@H](O)[C@H]3O)c(O)c12,"inconclusive: 29.1 µM [activator, single point]"
14,CCN(CC)c1ccc2cc(S(=O)(=O)c3ccc(Cl)cc3)c(=O)oc2c1,inactive
15,CCCCc1nnc(SCc2ccc(OCC)cc2)n1N,"inconclusive: 0.517 µM [inhibitor, full curve]"
16,O=C(/C=C/c1ccccc1)NCCCNC(=O)/C=C/c1ccccc1,inactive
17,COc1ccc(-c2noc(-c3cccnc3)n2)cc1OC,"inconclusive: 31.6 µM [activator, single point]"
18,O=C(c1cccc(F)c1)N1CCN(C(=O)c2cc3nc(-c4ccco4)cc(C(F)(F)F)n3n2)CC1,inactive
19,O=C(NC1CCCCC1)C(c1ccncc1)N(Cc1ccccc1)C(=O)c1ccc(-c2ccccc2)[nH]1 (centres undefined),"inconclusive: 2.91 µM [inhibitor, full curve, poor fit]"
20,Fc1ccccc1/C=N/NC(=S)Nc1ccc(Cl)cc1Cl,"inconclusive: 0.708 µM [inhibitor, full curve, poor fit]"
